Patent US7541179
No constants are given. Whether binding was seen depends on the method and setting. Some binding calls cover weakened binding; strength is not graded here.

By UniProt entry, the sequences of proteins in these tests, tags left out. Residues count along the entry.
UniProt P01942, residues 2-142: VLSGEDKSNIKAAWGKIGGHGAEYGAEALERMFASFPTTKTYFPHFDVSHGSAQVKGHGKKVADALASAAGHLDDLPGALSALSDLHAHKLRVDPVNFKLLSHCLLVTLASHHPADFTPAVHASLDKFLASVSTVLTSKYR
UniProt P68871, residues 2-147: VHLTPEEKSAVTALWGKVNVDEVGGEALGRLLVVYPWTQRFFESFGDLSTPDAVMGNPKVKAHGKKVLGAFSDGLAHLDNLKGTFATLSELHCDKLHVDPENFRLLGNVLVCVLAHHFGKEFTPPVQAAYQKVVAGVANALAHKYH

Experiments:
[1] = molecular target: endogenous murine α-globin (mouse) (UniProt P01942); experiment: quantitative hemoglobin analysis of tetramers (Hbb^hu, mu α2: huβ^A2)
[2] = molecular target: endogenous murine α-globin (mouse) (UniProt P01942); experiment: haemoglobin analysis of peripheral blood
[3] = molecular target: endogenous murine α-globin (mouse) (UniProt P01942); experiment: cellulose acetate gel fractionation of red cell lysates

- binding [1]: binds
- binding [2]: binds
- binding [3]: binds
Substance: vector-encoded human β-globin (β^A) (from UniProt P68871 2-147)
